Experimental data taken from EP1232754A2, “Use of cationic helix peptides for treatment of sepsis and for detection and removal of endotoxins” (Commonwealth Biotechnologies, Inc., priority 2001, dated 2002).
Bridges are numbered along the chain shown (N, C = ends). Roman numbers before positions name the chains, in order. [ ]: non-standard residue; d: D form. Dap = NC[C@H](N)C(=O)O

Experiment: Titration circular dichroism spectroscopy of endotoxin binding
Details: by CD
Description: Circular dichroism (CD) spectroscopy can be used to determine the fractional percent of secondary structural elements present in a peptide preparation. Titration CD spectroscopy can be used to assess the effect of binding a ligand on the reorganization of peptide structure (You, Scarsdale, and Harris 1991; Sobel, Soler, et al 1992; Soler, Sobel and Harris 1992; Tyler-Cross, Sobel et al 1993; Tyler-Cross, Sobel, Marques et al, 1994). Thus, incremental amounts of endotoxin were added to a solution of TR3 CONST and the effect of binding endotoxin by the peptide was assessed by CD spectroscopy.
By CD, Tris Arg Helix #3 (constrained) is 18% helix in solution (20°C) but complexation with endotoxin increases the helix character of the peptide to nearly 50% (Figure 3). Note that binding of endotoxin is dose dependent and saturable.

“I: Ac-AEARARRAAARAARRAKKP[Dap]E-NH2 / II: Ac-AEARARRAAARAARRA / III: Ac-AEARARRAAARAARRA (amide I:18-II:C, I:20-III:C) [Tris Arg Helix #3 (constrained)]” showed a helix character (complexation with endotoxin) of ~50% and a helix (in solution (20°C), without endotoxin) of 18%.
